PubChem BioAssay AID1224828, NIAID – 2016
The deposit covers about 17,000 reagents; this is a random part of them. In the full data, 762 (4.5%) got an active call. 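Active calls include both raised and lowered p65 entry, mostly lowered; wells with fewer than 50 cells lack a z-score.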 The raw values are shown without normalisation.

Screen: 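Knock-downs that increase or decrease LPS-induced p65 nuclear translocation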 (primary screen)
Cells: mouse RAW264.7 G9 macrophage reporter cells (GFP-p65, Tnf promoter-mCherry)
Knock-down reagent: siRNA pool against mouse genes, 100 nM
Duration: 2 days siRNA transfection, then 40 min LPS before fixation
Treatment: LPS (Salmonella minnesota R595) at 10 ng/ml
Measurement: 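Imaged p65 nuclear translocation ratio, normalised to the plate median, converted to robust z-scores and averaged across two replicates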
Scale: p65 translocation robust z-score: higher = more nuclear NF-kappaB p65 after LPS than the plate median; nuclear/cytoplasmic p65 ratio: higher = more nuclear NF-kappaB p65
Hit rule: 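Called active when z exceeds 3.3 or falls under -1.56 (median of Tlr4 controls), giving activity score of at least 50; no calls for control wells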
Calls: active = hit (p65 shift raised or lowered); inactive = no clear change

Gene | p65 translocation robust z-score | nuclear/cytoplasmic p65 ratio, rep 1 | nuclear/cytoplasmic p65 ratio, rep 2 | low cell count flag | call
Ehd2 | – | 1.37 | 1.26 | fewer than 50 cells per well; well left out of scoring | inactive
Anapc4 | -0.08 | 1.63 | 1.58 | enough cells to score | inactive
Ccdc126 | – | 1.43 | 1.09 | fewer than 50 cells per well; well left out of scoring | inactive
Ppp2r5d | -0.21 | 1.44 | 1.41 | enough cells to score | inactive
Slc66a3 | 0.45 | 1.39 | 1.54 | enough cells to score | inactive
Sec24c | – | 1.56 | 1.16 | fewer than 50 cells per well; well left out of scoring | inactive
Insrr | 1.32 | 1.84 | 1.59 | enough cells to score | inactive
Abcg2 | -0.36 | 1.57 | 1.55 | enough cells to score | inactive
Msmo1 | -0.22 | 1.57 | 1.41 | enough cells to score | inactive
Snx9 | -0.76 | 1.46 | 1.43 | enough cells to score | inactive
Kcns2 | -0.77 | 1.37 | 1.28 | enough cells to score | inactive
Acot1 | -0.72 | 1.46 | 1.68 | enough cells to score | inactive
Ncald | -0.53 | 1.64 | 1.56 | enough cells to score | inactive
Wdr33 | -1.15 | 1.34 | 1.33 | enough cells to score | inactive
Efcab6 | – | 1.24 | 1.08 | fewer than 50 cells per well; well left out of scoring | inactive
Rassf9 | 1.03 | 1.62 | 1.32 | enough cells to score | inactive
Rab6a | 2.82 | 1.86 | 1.97 | enough cells to score | inactive
Hsd17b2 | -0.37 | 1.44 | 1.28 | enough cells to score | inactive
Fbxo17 | -1.43 | 1.36 | 1.28 | enough cells to score | inactive
Or52e19b | – | 1.07 | 1.42 | fewer than 50 cells per well; well left out of scoring | inactive
Or10p21 | – | 1.44 | 1.26 | fewer than 50 cells per well; well left out of scoring | inactive
Cyp1b1 | 0.42 | 1.59 | 1.38 | enough cells to score | inactive
Smco1 | -0.71 | 1.25 | 1.24 | enough cells to score | inactive
Cfl1 | 0.19 | 1.61 | 1.83 | enough cells to score | inactive
